# In paper PMC9322189 (Pharmaceutics, 2022):
# Experiment: peptide made by a vendor
# Conditions: whole synthesis
row,Substance,final purity (method not given)
1,NTDPSCSCVTPLDFNHCLKNREDNGLPMLS,93%
2,GCHLFSKRKCSQNKQSKRGKSRFYLSWRPL,93%

# Experiment: peptide made by a vendor (Fmoc solid-phase peptide synthesis)
# Conditions: whole synthesis, area %, scale of the general procedure 0.25 mmol
row,Substance,final purity (method not given)
1,PEPTIDE1{E.R.P.Q.D.T.H.S.C.L.P.V.R.E.E.D.P.G.L.R.V.R.W.R.L.M.I.A.S.V}$$$$V2.0,93%
2,PEPTIDE1{A.A.E.V.R.D.P.A.V.R.L.P.L.Q.G.L.P.G.Q.D.L.R.G.A.H.P.A.Q.A}$$$$V2.0,97%
3,PEPTIDE1{L.V.R.N.P.M.C.V.S.S.V.G.K.P.S.D.M.V.Q.P.L.K.P.I.R.E.F.I.G.A}$$$$V2.0,94%
4,PEPTIDE1{H.Q.L.G.Q.V.R.L.R.T.A.T.V.L.R.P.G.A.A.A.G.R.A.L.P.L.V.D.A.E.L}$$$$V2.0,94%
5,PEPTIDE1{S.S.D.E.L.R.N.G.K.M.K.A.F.L.S.L.A.R.F.Q.I.L.N.T.K.E.L.K.T.T}$$$$V2.0,94%
6,PEPTIDE1{S.A.M.E.K.R.G.A.R.E.T.Q.Q.Q.R.K.R.V.F.R.G.R.G.V.N.S.A.K}$$$$V2.0,95%
7,PEPTIDE1{V.T.L.E.E.R.L.D.K.A.C.E.P.G.V.D.Y.D.G.Q.T.G.V.I.H.F.Q.P.R.G}$$$$V2.0,92%
8,PEPTIDE1{S.V.T.N.T.S.L.A.H.E.L.W.K.V.P.L.H.L.K.T.S.L.L.R.P.A.H.L.R.D}$$$$V2.0,95%
9,PEPTIDE1{D.L.N.V.E.R.A.L.R.V.R.G.L.P.R.L.H.Q.L.G.Q.V.R.L.R.T.A.T.V.L}$$$$V2.0,95%
10,PEPTIDE1{A.A.G.R.A.L.P.L.V.D.A.E.L.P.A.D.A.A.A.E.V.R.D.P.A.V.R.L.P.L}$$$$V2.0,95%
11,PEPTIDE1{G.Q.D.L.R.G.A.H.P.A.Q.A.H.A.G.D.A.L.P.G.A.Q.G.G.P.P.D.L.H.R}$$$$V2.0,93%
12,PEPTIDE1{F.M.L.I.K.N.P.M.N.V.K.N.V.E.R.P.L.K.C.M.A.T.L.P.N.I.R.K.F.I}$$$$V2.0,96%
13,PEPTIDE1{R.E.S.S.R.P.R.G.E.E.T.K.R.D.Q.E.L.E.I.A.V.G.P.E.E.A.K.L.C.L}$$$$V2.0,97%
14,PEPTIDE1{D.G.W.R.L.L.P.G.V.S.R.V.Q.M.E.S.S.R.G.R.R.R.Q.G.R.Q.L.R.G.Q}$$$$V2.0,99%
15,PEPTIDE1{R.E.D.N.G.L.P.M.L.S.T.N.A.M.S.W.K.T.I.S.A.M.E.K.R.G.A.R.E.T}$$$$V2.0,92%

# For some assays here: End groups of sequences in plain letters are not given here. For some assays here: Strings that start with PEPTIDE1 are HELM notation: dots part the residues, brackets hold end groups and non-standard residues.
